From PubChem BioAssay AID652054 (National Center for Advancing Translational Sciences (NCATS), 2013)
The campaign covered roughly 360,000 compounds. About 9,100 (2.5%) were called active. The inconclusive results got no clear call from the source; some entries with a clear call stand among them for comparison. No stated cut-off is given here; in the data, active means max response below about -50%; inconclusive means no clear call, values can overlap the other calls; inactive means above that.

Chains of the proteins cited; added tags and fusions are not shown.
UniProt P35462, whole entry, looked up: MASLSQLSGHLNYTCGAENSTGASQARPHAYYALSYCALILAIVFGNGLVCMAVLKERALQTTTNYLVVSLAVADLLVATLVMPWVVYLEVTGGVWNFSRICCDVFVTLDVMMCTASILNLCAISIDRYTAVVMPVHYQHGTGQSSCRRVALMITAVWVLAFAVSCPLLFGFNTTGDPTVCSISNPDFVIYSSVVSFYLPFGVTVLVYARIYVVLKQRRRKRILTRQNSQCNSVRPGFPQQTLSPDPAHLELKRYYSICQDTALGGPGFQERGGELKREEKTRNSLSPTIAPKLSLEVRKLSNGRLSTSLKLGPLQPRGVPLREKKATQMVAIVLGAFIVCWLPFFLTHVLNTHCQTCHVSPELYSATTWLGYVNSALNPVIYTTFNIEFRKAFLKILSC

molecular target: D(3) dopamine receptor (Homo sapiens) (UniProt P35462); experiment: qHTS of D3 Dopamine Receptor Antagonist: qHTS; settings: D3R cells, DiscoveRx beta-arrestin luminescence, antagonist mode; active compounds read low
Procedure, shortened: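 Cells plated overnight at 1500 cells/well, then exposed to library compounds with dopamine controls for 90 minutes at 37 degrees C. DiscoveRx reagent added for 30–60 minutes at room temperature; luminescence read, quantitative HTS format.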
On the % scale 0 is the no-effect control and ±100 the full control effect.

Max response, negative = inhibition, inconclusive:
CCCCCCCNC(=O)C1(CC2CC(c3ccccc3)=NO2)CCN(C(=O)c2ccccc2)CC1 (stereo not drawn) -33.1%, O=C(NCCCO)C(=O)NCC(c1ccc2c(c1)OCO2)N1CCN(c2ccc(F)cc2)CC1 (stereo not drawn) -37.8%, Fc1ccc(-c2nc(-c3cccs3)[nH]c2-c2ccc(F)cc2)cc1 -35.9%, CN(N=Nc1cccc([N+](=O)[O-])c1)c1ccccc1 -32.3%, Cc1ccc(S(=O)(=O)N(C)c2ccc(OCC(=O)OCc3c(C)noc3C)cc2)cc1 -31.6%, Cc1cccc(C(C)(C)C)c1OCCn1ccnc1 -41.5%, Cc1c(C)c2c(OCC(=O)NCc3ccco3)cc3c(c2oc1=O)CCC(C)(C)O3 -34.2%, CCOC(=O)c1c(C)nc2sc3c(c2c1-c1ccc(OC)cc1)NC(c1ccccc1)NC3=O (stereo not drawn) -31.4%, CCCc1cc(C(F)(F)F)c(C#N)c(=O)[nH]1 -39.9%, CC1CCCN(c2nc3c(c(=O)[nH]c(=O)n3C)n2CCSc2nc3ccccc3o2)C1 (stereo not drawn) -30.7%, NC(=S)NN=C1c2ccccc2-c2cc(Br)ccc21 -39.1%, CC1(C)OC(=O)C2=C(C[C@@H](C3CCCCC3)O[C@H]2c2ccccc2)O1 -37.6%, CC1=CC(c2ccccc2)=NS(=O)(=O)N1 -43.1%, Cc1cc(C)c2nc(N3CCCN(C(=O)c4ccco4)CC3)c(C#N)cc2c1 -33.1%, COc1ccc(/C=C/CN2CCCC(C(=O)c3cc(F)ccc3F)C2)cc1 (stereo not drawn) -44.9%, CC(=NOC(=O)c1ccc(Cl)cc1)c1nccs1 -37.8%, O=C1C=C(c2cccc(O)c2)C[C@@H](c2ccc(F)cc2)C1 -36.1%, CCC(CC)C(=O)N(C)c1c(C)nc2c(OCc3cc(Cl)cc(Cl)c3)cccn12 -49.2%, CCC(=O)Nc1ccc(N2CCN(C(=O)c3ccco3)CC2)c(Cl)c1 -44.6%, CCC(CC)NC(=O)c1ccc2nc[nH]c2c1 -36.4%, CCOc1ccc2c(ccc(/C=C/c3cc(C)c4cccnc4c3O)[n+]2C)c1 -49.8%, COc1ccc(-c2nn(-c3ccccc3)cc2/C=C2/SC(=S)N(CCC(=O)O)C2=O)c(C)c1 -32%, COc1ccc(S(=O)(=O)CCC(=O)NCCc2ccc(C)cc2)cc1 -30.5%, N=c1ccn(Cc2cccc(Cl)c2)cc1 -37.9%, COc1cccc(C(=O)Nc2cccc(C(=O)NC3=NN(c4c(Cl)cc(Cl)cc4Cl)C(=O)C3)c2)c1 -32.4%, O=C(CSCc1c(F)cccc1F)Nc1ccccc1 -34.9%, O=C(NCCN1CCOCC1)c1ccc2c(c1)N(Cc1c(F)cccc1Cl)C(=O)c1ccccc1S2 -30.4%, COc1ccc(S(=O)(=O)N(C)C[C@H]2Oc3ccc(NC(=O)C4CC4)cc3C(=O)N([C@H](C)CO)C[C@@H]2C)cc1 -33.1%, COc1cccc(OCC(O)CN2CCN(c3ccccc3)CC2)c1 (stereo not drawn) -30.4%, COc1ccc(N2CSC3=C(C#N)C(c4ccc(OC)c(OC)c4)CC(=O)N3C2)c(OC)c1 (stereo not drawn) -35.1%, C/C(=N\NC(=S)Nc1ccc(F)cc1)c1ccc2c(c1)OCCO2 -38%, OCCOc1nnnn1-c1ccccc1 -30.4%, CCOC(=O)C1CCCN(C(=O)C2CCN(S(=O)(=O)c3cccs3)CC2)C1 (stereo not drawn) -33.4%, COc1ccc(N(CC(=O)NCc2ccc3c(c2)OCO3)S(=O)(=O)c2ccccc2[N+](=O)[O-])c(OC)c1 -38.5%, CC(C)c1ccc(/C=C/C(=O)N2CCCCCC2)cc1 -36.1%, CN(Cc1c(F)cccc1Cl)C(=O)c1ccc(COc2ccccc2)cc1 -41%, COc1ccc(C2/C(=C(/O)c3ccccc3)C(=O)C(=O)N2C)cc1 (stereo not drawn) -41%, CC(C)c1ccc(CNc2ccc([N+](=O)[O-])cn2)cc1 -32.3%, Cc1cccn2c(=O)c(/C=C(\C#N)S(=O)(=O)c3ccccc3)c(N3CCC(C(N)=O)CC3)nc12 -39%, Cc1c(CN(C)C)c2c(n1Cc1ccccc1)C(=O)c1ccc(Br)cc1-2 -39.1%, COc1ccc(Cn2ccc(=O)c(Cc3c(Cl)cccc3Cl)c2C)cc1 -40.9%

Max response, negative = inhibition, inactive:
Cn1nc(C(=O)NNC(=O)c2ccccc2Br)c2ccccc2c1=O 6.05%, CCn1c(SCC(=O)N2CCC(C)CC2)nnc1-c1ccco1 4.83%, CCOC(=O)c1ccc(Nc2cc(C)nc(-c3ccccc3O)n2)cc1 48.8%, COC(=O)c1sccc1NC(=O)c1c(Cl)cnn1C 17.2%, CC1CCN(S(=O)(=O)c2cc(C(=O)N3CCN(c4ccccc4)CC3)ccc2Br)CC1 34.1%, CN(C)CCN1CCN(c2cc(-c3cccc(Cl)c3)nc3ccnn23)CC1 -22%, COc1ccc(C(=O)c2c(C)c3cc(C)ccc3n2CC(O)CN2CCOCC2)cc1 (stereo not drawn) -24.2%, Clc1ccc(N2N=C(c3cccs3)CC2c2ccco2)cc1 (stereo not drawn) 1.56%, O=C1C2C3C=CC(C3)C2C(=O)N1c1n[nH]c(-c2ccccc2)n1 (stereo not drawn) -3.77%, CCOc1ccc2nc(NC3=NC(C)(C)C=C(C)N3)nc(C)c2c1 -14.2%, O=C(NCCN1C(=O)S/C(=C/c2ccccc2)C1=O)C1CC(=O)N(Cc2ccccc2)C1 (stereo not drawn) 11.5%, Cc1ccc2sc(-c3ccc(NC(=O)c4cc(-n5cnnc5)ccc4Cl)cc3)nc2c1 47.7%, O=C(NCCCO)C(=O)Nc1ccc2c(c1)N(S(=O)(=O)c1cccs1)CCC2 13.4%, COCCn1c(SCc2nc3scc(-c4ccc(Cl)cc4)c3c(=O)[nH]2)nnc1-c1cccc(C)c1 2.08%, CCN(CC)CCOc1ccccc1OC -9.4%, CCN(CC)CCn1nc(C)nc1-c1ccccc1O -18.5%, COc1cc2oc(=O)cc(CN3CCN(C(C)=O)CC3)c2cc1Cl -23.7%, Cc1onc(-c2c(F)cccc2Cl)c1C(=O)NCc1ccccn1 14.8%, Cc1ccc2nc(SCC(=O)c3c(C)[nH]c4ccccc34)[nH]c2c1 16%, CC(=O)Nc1c2c(nn1-c1cccc(Cl)c1)CS(=O)(=O)C2 8.11%, Cc1cccc(N=Nc2c(N)n[nH]c2N)c1 -9.38%, O=C(CCSCc1ccccc1F)N1CCN(c2ccccn2)CC1 -23.8%, O=c1c2ccc(Cl)cc2[nH]c(=S)n1Cc1cccnc1 6.12%, N/C(=N\OC(=O)c1cccnc1)c1ccc(Cl)cc1Cl -5.13%, O=C(O)c1ccc(NC(=O)c2ccc3c(c2)C(=O)N(CC2CCCO2)C3=O)cc1 (stereo not drawn) -5.38%, O=C(CN(C(=O)c1csnn1)c1ccccc1F)NCc1ccc2c(c1)OCO2 -11.2%, COc1ccc(C(=O)/C=C/Nc2ccc([N+](=O)[O-])cc2C)c(OC)c1 16%, CC(=O)c1cccc(NC(=O)C(C)OC(=O)c2cccc(S(=O)(=O)N3CCN(C)CC3)c2)c1 (stereo not drawn) -5.61%, CCOc1ccc(Nc2ccnc3cc(Cl)ccc23)cc1 0.71%, CCOC(=O)c1cnc2ccc(OCC)cc2c1NCc1cccnc1 10.9%, CC(C)(CO)NCc1ccccc1OCC(=O)Nc1ccccc1 -28.5%, CCOc1nc(CC(C)C)c2c(c1C#N)CC(C)(C)OC2 -12.4%, COc1ccccc1C=NNc1nc(C)cc(=O)[nH]1 -12.1%

Max response, negative = inhibition, active:
COc1ccc2c(c1)CO[C@]21O[C@H](CCO)C[C@H](O)[C@H]1O -69.4%, CC(CN1CCCC1)OC(=O)c1ccc(Cl)cc1Cl (stereo not drawn) -79.6%, c1ccc(CC[C@@H]2CC[C@@H](CCc3ccccc3)N2)cc1 -87.8%, COc1ccc([C@H]2[C@@H]3C=CCC[C@@]3(C)C(=O)N2Cc2ccccc2)cc1Cl -54.9%, COc1ccc(N/N=C(/N=Nc2nc(C)cc(=O)[nH]2)c2ccccc2)cc1 -56.5%, COc1cccc(NC(=O)N(CCCN2CCOCC2)C(C)c2cc3ccccc3o2)c1 (stereo not drawn) -69.8%, CC1CN(CCOCCSc2ccccc2)CC(C)O1 (stereo not drawn) -66.5%, CC1Nc2ncnc(N3CCN(c4ccccc4)CC3)c2N(Cc2ccc(Br)cc2)C1=O (stereo not drawn) -156%, O=C(NCCN1CCc2ccccc2C1)C1CCN(S(=O)(=O)N2CCC3(CC2)OCCO3)CC1 -59.7%, CN(C1=C(NC(=O)c2ccccc2)C(=O)c2ccccc2C1=O)C1CCS(=O)(=O)C1 (stereo not drawn) -53.8%, CCOc1ccccc1NC(=O)c1cc(S(=O)(=O)N2CCC3(CC2)OCCO3)ccc1F -83.8%, COc1ccccc1OCCCN1CCC(C(O)(c2ccccc2)c2ccccc2)CC1 -84.5%, O=C1CC(c2cccc(Cl)c2)CC(O)=C1C=NCCCO (stereo not drawn) -89.7%, O=C(NN1C(=O)c2cc(Br)ccc2NC1c1cc(Br)cc(Br)c1O)c1ccncc1 (stereo not drawn) -66.2%
